# Values from PubChem BioAssay AID1259254 (NCATS, 2017).
# Test: 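Genome-wide screen for genes that prevent DNA re-replication in cancer cells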 (primary screen)
# Cell system: human HCT116 colorectal cancer cells
# Reagents: single siRNA against human genes
# Time to read-out: 3 days
# Read-out: 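Nuclei stained with Hoechst and imaged; cell-cycle phase assigned by DNA content; G2 share scaled per plate, non-targeting siRNA 0%, GMNN siRNA 100%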
# Direction: G2 robust z-score and G2 cells, % of GMNN control: higher = more G2 cells, more excess DNA replication; raw share of cells in G2: higher = larger share of cells with G2 DNA content
# Rule for the call: 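An siRNA counts as active if its G2 robust z-score lies at least 5 MADs above the screen median; here such calls match roughly 38% of GMNN control or more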
# The deposit covers about 59,000 reagents; shown is a random part of them. About 1,550 of them (2.6%) count as active. 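G2 share is only a proxy for re-replication; each gene was hit by three separate siRNAs, and active genes were retested.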 Raw values vary from plate to plate and are shown uncorrected. The numbers tell different reagents against one gene apart. Not stated in the record: the amount of reagent.
target gene,reagent no.,G2 robust z-score,"G2 cells, % of GMNN control",raw share of cells in G2 (%),outcome
FOXE1 (forkhead box E1),1,2.58,21.1,13.3,inactive
FOXE1 (forkhead box E1),2,1.12,10.9,9.18,inactive
FOXE1 (forkhead box E1),3,0.0357,3.22,4.8,inactive
MUCL3 (mucin like 3),1,0.554,6.87,6.76,inactive
MUCL3 (mucin like 3),2,0.883,9.18,6.01,inactive
MUCL3 (mucin like 3),3,-0.767,-2.43,1.7,inactive
IFNAR2 (interferon alpha and beta receptor subunit 2),1,0.333,5.31,6.15,inactive
IFNAR2 (interferon alpha and beta receptor subunit 2),2,0.17,4.16,6.56,inactive
IFNAR2 (interferon alpha and beta receptor subunit 2),3,0.228,4.57,7.42,inactive
ENTPD3 (ectonucleoside triphosphate diphosphohydrolase 3),1,-0.737,-2.22,4.07,inactive
ENTPD3 (ectonucleoside triphosphate diphosphohydrolase 3),2,0.233,4.61,5.69,inactive
ENTPD3 (ectonucleoside triphosphate diphosphohydrolase 3),3,-0.179,1.71,4.01,inactive
"PFKFB3 (6-phosphofructo-2-kinase/fructose-2,6-biphosphatase 3)",1,1.21,11.5,8.54,inactive
"PFKFB3 (6-phosphofructo-2-kinase/fructose-2,6-biphosphatase 3)",2,0.356,5.47,5.95,inactive
"PFKFB3 (6-phosphofructo-2-kinase/fructose-2,6-biphosphatase 3)",3,-0.673,-1.77,2.96,inactive
PDE6A (phosphodiesterase 6A),1,0.0711,3.47,5.92,inactive
PDE6A (phosphodiesterase 6A),2,-1.02,-4.23,3.03,inactive
PDE6A (phosphodiesterase 6A),3,-0.201,1.55,3.96,inactive

Part of the list above, limited to “G2 cells, % of GMNN control”.
FOXE1 (forkhead box E1) #2 = 10.9
FOXE1 (forkhead box E1) #3 = 3.22
MUCL3 (mucin like 3) #1 = 6.87
MUCL3 (mucin like 3) #2 = 9.18
MUCL3 (mucin like 3) #3 = -2.43

Next records follow.
target gene,reagent no.,G2 robust z-score,"G2 cells, % of GMNN control",raw share of cells in G2 (%),outcome
ARL2BP (ARF like GTPase 2 binding protein),1,2.42,20,11.9,inactive
ARL2BP (ARF like GTPase 2 binding protein),2,2.19,18.4,11.9,inactive
ARL2BP (ARF like GTPase 2 binding protein),3,-0.672,-1.76,2.68,inactive
TRMU (tRNA mitochondrial 2-thiouridylase),1,3.71,29.1,16.4,inactive
TRMU (tRNA mitochondrial 2-thiouridylase),2,0.637,7.45,7.11,inactive
TRMU (tRNA mitochondrial 2-thiouridylase),3,-0.981,-3.93,4.71,inactive
IER5L (immediate early response 5 like),1,4.42,34.1,15.4,inactive
IER5L (immediate early response 5 like),2,-0.266,1.1,3.88,inactive
IER5L (immediate early response 5 like),3,2.19,18.4,12.5,inactive
KIF4B (kinesin family member 4B),1,0.132,3.9,6.48,inactive
KIF4B (kinesin family member 4B),2,2.46,20.3,11.7,inactive
KIF4B (kinesin family member 4B),3,1.46,13.3,11.6,inactive
